The test has as its target EGFR (Epidermal Growth Factor Receptor) (human) (UniProt P00533). The test can be described thus: phage ELISA on coated EGFR. In general terms: ELISA stands for enzyme-linked immunosorbent assay.

Changes are numbered by the printed parent chain. Results are given in words; binding and its absence hold for the method and conditions named. Some binding calls cover weakened binding; strength is not graded here.

B1: clone 6 of the 1OZJ scaffold (designed binder)
chain: MSSILPFTPPIVKRLLGWKKGEQNGQEEKWCEKAVKSLVKKLKSTGQLDELEKAITTQNVNTKCITIPRSLDGRLQVSHRKGLPHVIYCRLWRWPDLHSHHELRAMGLCSFAFNMKKLEVCVNPYHYQRVETPVLPPVLVPRHT
Take B1: the binding result was “binds”.

B2: clone 7 of the 1OZJ scaffold (designed binder)
chain: B1 chain with S44L, G107A, S110A, N114M, L118C
As to B2, the binding entry is listed as “binds”.

B3: clone 9 of the 1OZJ scaffold (designed binder)
chain: B1 chain with S44A, G107Q, S110I, N114L, L118P
B3: the binding entry is on record as “binds”.

For the origin of these results see patent US20120071419A1.
